Assay results from US20130317054A1, “NEURONAL NICOTINIC AGONIST AND METHODS OF USE” (ABBVIE INC., priority 2012, published 2013).

Test system: clinically stable subjects with schizophrenia
Experiment: Phase 2a Clinical Study A: disposition of subjects and tolerability
Format: in vivo, human
Details: 25 mg group; lowest completion rate
Text: A Phase 2a proof-of-concept (POC) study in clinically stable subjects with schizophrenia who were clinically stable and received stable doses of atypical antipsychotic therapy. The study was a Phase 2, multi-center, randomized, double-blind, placebo-controlled, parallel group study designed to evaluate the safety and efficacy of doses of (4s)-4-(5-phenyl-1,3,4-thiadiazol-2-yloxy)-1-azatricyclo[3.3.1.1^3,7]decane (Compound A) in clinically stable male and female subjects (ages 20 to 55, inclusive) with a Diagnostic and Statistical Manual of Mental Disorders—Fourth Edition, Text Revision (DSM-IV-TR) diagnosis of schizophrenia. Psychiatric diagnoses were confirmed using the Mini-International Neuropsychiatric Interview (MINI) version 6.0.0. The criteria for clinical stability was determined by a combination of retrospective data (over the 4 months prior to the start of Screening, which will be supported by clinical records, patient, identified responsible contact person, and physician interviews), and prospective data assessed during the Prospective Stabilization Period of 28 to 42 days duration. […]

## c1ccc(-c2nnc(O[C@@H]3C4CC5C[C@H]3C[N@](C5)C4)s2)cc1 [Compound A, (4s)-4-(5-phenyl-1,3,4-thiadiazol-2-yloxy)-1-azatricyclo[3.3.1.1^3,7]decane]
  completion rate: 73.1%
